The values below come from PubChem BioAssay AID248 (DTP/NCI, 2004).

The list is a part of this screen's results and no random one: it is rich in T/C values a quarter to a half above the control, in often repeated tests (any T/C) and in doses without a T/C. Other doses and runs of a compound stand elsewhere. T/C is the treated group as % of the vehicle group. Some doses have a count of surviving animals in place of a T/C: the source holds a T/C of zero for them, seemingly a mark for toxic or unscored doses. Some doses without a T/C left all or most animals alive at the check, yet need not have been tolerated: the source hardly ever lists a survival T/C far under the control, and the zero likely stands for such cases as well. Counts of survivors are from the toxicity check (mostly the fifth day) where no day follows; animals may have died later. Schedules are NCI's codes, read here as Q, the interval in days (D) or hours (H), X, the number of doses. Where survival is the endpoint, the PubChem record calls one and a half times the control and up active, and a quarter to a half above the control has no call in these data; cut-offs in other NCI protocols can differ. Some T/C values are followed by the survivors on the day toxicity was checked, most often the fifth; where none is given, no animal had died by that day.

This test concerns L1210 leukemia ip in BDF1 mice, survival T/C. As to the kind of experiment: NCI In Vivo Anticancer Drug Screen. Data for tumor model L1210 Leukemia (intraperitoneal) in B6D2F1 (BDF1) mice. The conditions noted are these: T/C endpoint: mean survival time, higher T/C = longer survival.
Setting [1] is: dose: 100.0 mg/kg/injection, schedule: Q04DX002 (ip), vehicle: Klucel (hydroxypropylcellulose) (HPC).
Setting [2] is: dose: 200.0 mg/kg/injection, schedule: Q04DX002 (ip), vehicle: Klucel (hydroxypropylcellulose) (HPC).
The mark [3] stands for this setting: dose: 400.0 mg/kg/injection, schedule: Q04DX002 (ip), vehicle: Klucel (hydroxypropylcellulose) (HPC).
Where [4] appears, read: dose: 200.0 mg/kg/injection, schedule: Q01DX009 (ip), vehicle: Klucel (hydroxypropylcellulose) (HPC).
Where [5] appears, read: dose: 400.0 mg/kg/injection, schedule: Q04DX003 (ip), vehicle: saline with Tween-80.
[6] abbreviates: dose: 50.0 mg/kg/injection, schedule: Q04DX003 (ip), vehicle: saline.
Setting [7] is: dose: 100.0 mg/kg/injection, schedule: Q04DX003 (ip), vehicle: saline.
Setting [8] is: dose: 200.0 mg/kg/injection, schedule: Q04DX003 (ip), vehicle: saline.
Setting [9] is: dose: 400.0 mg/kg/injection, schedule: Q04DX003 (ip), vehicle: saline.
The mark [10] stands for this setting: dose: 400.0 mg/kg/injection, schedule: Q01DX001 (ip), vehicle: Klucel (hydroxypropylcellulose) (HPC).

With `CC(C)C(=O)[O][Sn]([CH3])([CH3])[CH3]`, the survivor count is, setting by setting: (dose: 1.56 mg/kg/injection, schedule: Q01DX009 (ip), vehicle: Klucel (hydroxypropylcellulose) (HPC)) 5 of 6; (dose: 3.12 mg/kg/injection, schedule: Q01DX009 (ip), vehicle: Klucel (hydroxypropylcellulose) (HPC)) 0 of 6; (dose: 3.12 mg/kg/injection, schedule: Q04DX002 (ip), vehicle: Klucel (hydroxypropylcellulose) (HPC)) 1 of 3; (dose: 6.25 mg/kg/injection, schedule: Q04DX002 (ip), vehicle: Klucel (hydroxypropylcellulose) (HPC)) 0 of 3; (dose: 12.5 mg/kg/injection, schedule: Q04DX002 (ip), vehicle: Klucel (hydroxypropylcellulose) (HPC)) 0 of 3; under setting [1], 0 of 3. Moreover, the survivor count by setting is: under setting [2], 0 of 3; under setting [3], 0 of 3.
Turning to `[Cl][Pd][Cl].[NH-]C1CCCCC1.[NH-]C1CCCCC1`, the survivor count was 0 of 3 under setting [2] and 0 of 3 under setting [3].
For the compound `CC(NC1=NCCO1)C(O)c1ccccc1` (centres undefined), the survivor count is given as 2 of 6 (dose: 75.0 mg/kg/injection, schedule: Q01DX009 (ip), vehicle: saline with Tween-80); 0 of 6 (dose: 150.0 mg/kg/injection, schedule: Q01DX009 (ip), vehicle: saline with Tween-80); 0 of 6 (dose: 300.0 mg/kg/injection, schedule: Q01DX009 (ip), vehicle: saline with Tween-80).
As for `CCNC(C)(C)C(Cl)c1ccc(Cl)s1` (centres undefined), the survivor count was 3 of 6 under setting [4]; 2 of 6 (dose: 200.0 mg/kg/injection, schedule: Q04DX003 (ip), vehicle: Klucel (hydroxypropylcellulose) (HPC)); 2 of 6 (dose: 400.0 mg/kg/injection, schedule: Q04DX003 (ip), vehicle: Klucel (hydroxypropylcellulose) (HPC)).
Take `OC(c1ccccc1)C(c1ccccc1)C1CO1` (centres undefined): the survivor count runs as follows: (dose: 50.0 mg/kg/injection, schedule: Q01DX009 (ip), vehicle: DMSO) 6 of 6; (dose: 100.0 mg/kg/injection, schedule: Q01DX009 (ip), vehicle: DMSO) 3 of 6; (dose: 200.0 mg/kg/injection, schedule: Q01DX009 (ip), vehicle: DMSO) 1 of 6; (dose: 400.0 mg/kg/injection, schedule: Q01DX009 (ip), vehicle: DMSO) 0 of 6.
Consider `O=P(CCl)(CCl)CCl`, for which the survivor count is, setting by setting: (dose: 200.0 mg/kg/injection, schedule: Q01DX009 (ip), vehicle: saline with Tween-80) 6 of 6; (dose: 400.0 mg/kg/injection, schedule: Q01DX009 (ip), vehicle: saline with Tween-80) 2 of 6.
In the case of `COC(=O)C1(C)CCCC2(C)C3CCC4(C)CC3(CCO4)CCC12` (centres undefined), the survivor count under setting [1] was 3 of 3.
Regarding `CCCCC[As](=O)(O)CCCCC`, the T/C (dose: 20.0 mg/kg/injection, schedule: Q01DX001 (ip), vehicle: saline) was 126 % of control [3 of 4 alive]. The survivor count is reported as 1 of 4 (dose: 50.0 mg/kg/injection, schedule: Q01DX001 (ip), vehicle: saline); 0 of 4 (dose: 80.0 mg/kg/injection, schedule: Q01DX001 (ip), vehicle: saline); 0 of 4 (dose: 200.0 mg/kg/injection, schedule: Q01DX001 (ip), vehicle: saline); 0 of 4 (dose: 400.0 mg/kg/injection, schedule: Q01DX001 (ip), vehicle: saline).
In the case of `Cc1cc2ccccc2cc1C`, the survivor count (dose: 50.0 mg/kg/injection, schedule: Q04DX002 (ip), vehicle: other) is 3 of 3.
With `O=[N+]([O-])c1cnccc1Nc1ccncc1`, the survivor count under setting [5] is 5 of 6.
For `CC(=O)N1CCC(CC[P+](c2ccccc2)(c2ccccc2)c2ccccc2)CC1`, the survivor count is listed as 6 of 6 (dose: 25.0 mg/kg/injection, schedule: Q04DX003 (ip), vehicle: saline); 6 of 6 under setting [6]; 4 of 6 under setting [7]; 0 of 6 under setting [8]; 4 of 6 under setting [9].
In the case of `CC(C)(Cc1c[nH]c2ccccc12)NC(=O)c1ccccc1`, the survivor count under setting [4] is recorded as 6 of 6.
As for `O=[N+]([O-])c1cc(Cl)c(Cl)cc1[N+](=O)[O-]`, the survivor count (dose: 300.0 mg/kg/injection, schedule: Q04DX002 (ip), vehicle: Klucel (hydroxypropylcellulose) (HPC)) was 0 of 3.
Consider `O=P(O)(N(CCCl)CCCl)N1CCN(P(=O)(O)N(CCCl)CCCl)CC1`, for which the T/C is 147 % of control (dose: 100.0 mg/kg/injection, schedule: Q01DX015 (ip), vehicle: saline) and 137 % of control (dose: 300.0 mg/kg/injection, schedule: Q01DX015 (ip), vehicle: saline).
On to `CC(NC(=O)C(N)CSC(c1ccccc1)(c1ccccc1)c1ccccc1)C(=O)O` (centres undefined), for which the T/C is 127 % of control (dose: 25.0 mg/kg/injection, schedule: Q01DX009 (ip), vehicle: saline); 127 % of control (dose: 50.0 mg/kg/injection, schedule: Q01DX009 (ip), vehicle: other); 125 % of control (dose: 50.0 mg/kg/injection, schedule: Q01DX009 (ip), vehicle: saline); 142 % of control (dose: 100.0 mg/kg/injection, schedule: Q01DX009 (ip), vehicle: other); 138 % of control (dose: 100.0 mg/kg/injection, schedule: Q01DX009 (ip), vehicle: saline). In addition, the survivor count is 3 of 6 (dose: 200.0 mg/kg/injection, schedule: Q01DX009 (ip), vehicle: saline); 0 of 6 (dose: 400.0 mg/kg/injection, schedule: Q01DX009 (ip), vehicle: other); 4 of 6 (dose: 400.0 mg/kg/injection, schedule: Q01DX009 (ip), vehicle: saline).
Turning to `C[N+](C)(C)CCBr`, the survivor count is on record as 5 of 6 under setting [6], 2 of 6 under setting [7] and 0 of 6 under setting [8].
As to `CCOc1cc(/C=N\Nc2nnc(C)n2N)c(C)cc1N(CCCl)CCCl`, the survivor count was 5 of 6 (dose: 30.0 mg/kg/injection, schedule: Q01DX015 (ip), vehicle: carboxymethylcellulose (CMC)); 6 of 6 (dose: 50.0 mg/kg/injection, schedule: Q01DX015 (ip), vehicle: carboxymethylcellulose (CMC)); 4 of 4 (dose: 400.0 mg/kg/injection, schedule: Q01DX001 (ip), vehicle: carboxymethylcellulose (CMC)). The T/C was 129 % of control (dose: 44.0 mg/kg/injection, schedule: Q01DX001 (ip), vehicle: carboxymethylcellulose (CMC)) and 142 % of control (dose: 100.0 mg/kg/injection, schedule: Q01DX001 (ip), vehicle: carboxymethylcellulose (CMC)).
`CC(C)=NNC(=O)CC#N`: the survivor count under setting [10] was 1 of 6.
Consider `O=C(O)c1cccc(CCc2ccccc2)c1`, for which, under setting [10], the survivor count was 1 of 6.
In the case of `O=C1NC(=O)C2C3CCC(C3)C12` (centres undefined), the survivor count by setting is: under setting [7], 0 of 4; under setting [8], 0 of 4; under setting [9], 0 of 4.
Regarding `O=C(/C(=C\c1ccccc1)N1CCOCC1)c1ccc(Cl)cc1`, the survivor count was 1 of 6 (dose: 150.0 mg/kg/injection, schedule: Q01DX009 (ip), vehicle: Klucel (hydroxypropylcellulose) (HPC)); 6 of 6 (dose: 200.0 mg/kg/injection, schedule: Q04DX003 (ip), vehicle: saline with Tween-80); 3 of 6 (dose: 225.0 mg/kg/injection, schedule: Q01DX009 (ip), vehicle: Klucel (hydroxypropylcellulose) (HPC)); 1 of 6 under setting [5].
